In PMC12810954, “Targeted computational design of an interleukin-7 superkine with enhanced folding efficiency and immunotherapeutic efficacy” (eLife, 2026) one finds binding data, which are given here for one molecule.

The target of the assay is T1, wild type IL-7, yeast-displayed (human) (UniProt P13232).
T1 sequence: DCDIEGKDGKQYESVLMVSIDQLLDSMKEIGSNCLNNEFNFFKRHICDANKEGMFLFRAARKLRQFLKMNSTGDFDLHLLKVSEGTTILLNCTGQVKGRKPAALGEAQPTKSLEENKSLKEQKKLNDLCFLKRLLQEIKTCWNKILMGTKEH
The assay is described as follows: flow cytometry on cells; yeast display: induced yeast in 1X PBS incubated with 50 nM His-tagged IL7Rα for 30 min at 4°C; display read by anti-HA, bound receptor by anti-His antibody; only the binder purified.

Results are given in words; binding and its absence hold for the method and conditions named. Some results given as binding are weak or reduced against the parent protein; the word gives no strength.

B1: recombinant murine IL-7 receptor alpha (receptor, UniProt P16872 21-239)
chain: ESGNAQDGDLEDADADDHSFWCHSQLEVDGSQHLLTCAFNDSDINTANLEFQICGALLRVKCLTLNKLQDIYFIKTSEFLLIGSSNICVKLGQKNLTCKNMAINTIVKAEAPSDLKVVYRKEANDFLVTFNAPHLKKKYLKKVKHDVAYRPARGESNWTHVSLFHTRTTIPQRKLRPKAMYEIKVRSIPHNDYFKGFWSEWSPSSTFETPEPKNQGGWD
For the molecule B1, the binding result is “binds”.
